# Literature values, collected in patent publication US20260174867A1, “REDUCTION OF ADIPOSE TISSUE” (LEIOS THERAPEUTICS, INC., priority 2023, published 2026).
# Like-named read-outs stand apart in the source and are kept apart here. For at least one compound, name, drawing or mass did not settle the structure.
# Tested on: submental fat
# Settings: cited from earlier work
# [1] = Kybella Ph 3 (Trial 22), N = 256
# [2] = Kybella Ph 3 (Trial 23), N = 258
smiles,measurement,setting,value
"C[C@H](CCC(=O)O)[C@H]1CC[C@H]2[C@@H]3CC[C@@H]4C[C@H](O)CC[C@]4(C)[C@H]3C[C@H](O)[C@]12C [Kybella, deoxycholic acid]",≥1 grade reduction in the Composite CSFS & PSFS assessment (%),[1],−70.00%
same,≥2 grade reduction in the Composite CSFS & PSFS assessment (%),[1],−13.40%
same,≥1 grade reduction in the Composite CSFS & PSFS assessment (%),[2],−66.50%
same,≥2 grade reduction in the Composite CSFS & PSFS assessment (%),[2],−18.60%
same,subjects exhibiting a two grade improvement or larger reduction in submental adipose tissue,"subcutaneous injection, standard of care",less than 19%
